Reference: PubChem BioAssay AID504834 (National Center for Advancing Translational Sciences (NCATS), 2011)
About 22,000 (6.9%) of roughly 320,000 compounds were called active. The shares of active, inactive and inconclusive entries below differ from those in the screen. The call rests on the fitted dose curve; in most records, active means well fitted inhibition curve with a large enough effect; inconclusive means small, poorly fitted or top-dose-only effect, or another doubt; inactive means no such curve, though single readings can be large or run the other way. Potencies of inconclusive entries are doubtful fits and often do not repeat.

Experiment: Primary qHTS for delayed death inhibitors of the malarial parasite plastid, 96 hour incubation
Conditions: P. falciparum luciferase reporter growth; series mostly up to 28.7 µM
In short: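 Cell-based qHTS: luciferase-tagged P. falciparum in erythrocytes (2% hematocrit, 0.05% parasitemia final) incubated with compounds for 96 hours, 37 C, 5% CO2; luciferase detection reagent then added and luminescence measured.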
On the % scale 0 is the no-effect control and ±100 the full control effect; potency means the concentration at half of the fitted maximal effect.

SMILES	Potency	activity change, negative = inhibition
COc1ccc(CC(NC(C)=O)C(=O)NC2CCN(C(=O)Nc3ccc(Cl)cc3)CC2)cc1OC (stereo unspecified)	inconclusive: 4.15 µM [inhibitor, partial curve, poor fit]	–
COc1ccc(CCN2C(=O)CC(NNC(=O)c3ccc(F)cc3)C2=O)cc1OC (stereo unspecified)	inconclusive: 13.1 µM [inhibitor, partial curve]	–
CCOC(=O)N1CCN(C(=O)C(CC(C)C)NC(=O)C2CCCCC2)CC1 (stereo unspecified)	inconclusive: 0.0033 µM [inhibitor, full curve, poor fit]	–
C[C@H]1C=C(C(=O)N2CCN(Cc3ccc4c(c3)OCO4)CC2)O[C@@H](OCc2ccc(CO)cc2)C1	inconclusive: 11.7 µM [inhibitor, single point]	–
COc1cc2ccccc2cc1C(=O)Nc1ccc(C)cn1	inactive	–
COc1ccc(NC(=O)CSCC(=O)N(C)CC(=O)Nc2c(C)cccc2C)cc1	inactive	–
CCc1ccc2c(CN3CCN(S(=O)(=O)c4cccs4)CC3)cc(=O)oc2c1	inconclusive: 18.5 µM [inhibitor, single point]	–
CN1CCC(OC(=O)COc2ccc(F)cc2)CC1	inconclusive: 18.5 µM [inhibitor, single point]	–
Cc1ccc2cc3cc(C(=O)N(CC(=O)NC4CCCC4)c4cccc(C)c4C)sc3nc2c1	inconclusive: 1.31 µM [inhibitor, partial curve, poor fit]	–
Cc1cccc(NC(=S)NCc2cccn2C)c1	active: 11.7 µM	–
O=C(CC(=O)N/N=C/c1ccccc1)NCc1ccccc1	active: 10.4 µM	–
Cc1c(NC(=O)CN2C(=O)NC(C)(c3ccc(Cl)cc3)C2=O)c(=O)n(-c2ccccc2)n1C (stereo unspecified)	inactive	–
CCc1cc2c(SCC(=O)N3CCCC3=O)ncnc2s1	inconclusive: 2.62 µM [inhibitor, full curve, poor fit]	–
COc1cc(NS(=O)(=O)c2cc(C(=O)N3CCN(C(C)=O)CC3)ccc2OC)cc(OC)c1	inconclusive: 18.5 µM [inhibitor, single point]	–
FC(F)(F)c1cc(-c2ccccc2)nc2nc(N3CCOCC3)sc12	inconclusive: 16.5 µM [inhibitor, single point]	–
CCOC(=O)/C=C/C(=O)Nc1cc(S(=O)(=O)Nc2ccc(OC)cc2)ccc1N1CCOCC1	inconclusive: 7.38 µM [inhibitor, partial curve]	–
O=C(O)c1ccc2c(c1)C(=O)N([C@H](Cc1ccc(C(F)(F)F)cc1)C(=O)O)C2=O	inactive	–
CC(C#N)Sc1nc2ccccc2c(=O)n1-c1ccccc1 (stereo unspecified)	inconclusive: 2.08 µM [inhibitor, partial curve, poor fit]	–
COc1ccccc1/C=C/C=N/NC(=O)c1ccco1	inconclusive: 18.5 µM [inhibitor, single point]	–
O=C(O)/C=C\C(=O)Nc1ccc(OC(F)F)cc1	inconclusive: 13.1 µM [inhibitor, partial curve, poor fit]	–
Cc1cc(C)nc(N2CCC(C(=O)NCc3cccc(C(F)(F)F)c3)CC2)n1	active: 2.08 µM	–
COc1ccc2nc(NC(=O)C3CCCN3S(=O)(=O)c3ccc(C)cc3)sc2c1 (stereo unspecified)	inconclusive: 9.28 µM [inhibitor, single point]	–
Cc1occc1-c1nnc(SCC(=O)c2ccccc2)n1CC1CCCO1 (stereo unspecified)	inactive	–
O=C(CSc1nc(C2CC2)nc2ccccc12)NCc1ccc2c(c1)OCO2	inactive	–

SMILES	Potency	activity change, negative = inhibition
OC(c1ccccc1)c1nccn1Cc1ccccc1 (stereo unspecified)	inconclusive: 0.0738 µM [inhibitor, full curve, poor fit]	–
COc1ccc([N+](=O)[O-])cc1NC(=O)Nc1ccccc1	inactive	–
Cc1occc1C(=O)Nc1cccc(C(=O)NCc2ccccc2)c1	inactive	–
CCOc1cc(NC(=S)NCC2CCCO2)c(OCC)cc1NC(=O)CC(C)C (stereo unspecified)	inconclusive: 4.15 µM [inhibitor, partial curve, poor fit]	–
CCC(=O)Nc1ccc(NC(=O)c2cccc(OC)c2)nc1	inactive	–
CCOCCCNCc1cc(Cl)cc(Cl)c1OCC	inconclusive: 0.117 µM [inhibitor, full curve, poor fit]	–
O=C(/C=C/c1ccc(F)cc1)NC(=S)Nc1ccccc1	inactive	–
Cn1c(SCC(=O)Nc2ccc3nc(SCC(=O)NC4CC4)sc3c2)nnc1-c1ccccc1	inconclusive: 1.65 µM [inhibitor, full curve]	–
C=CCn1c(O)c(/C(CC)=N/NC(=S)Nc2ccccc2)c(=O)[nH]c1=O	inactive	–
CN(C)C1CCN(Cc2cc(COCc3ccccc3)c3cccnc3c2O)C1 (stereo unspecified)	inconclusive: 2.08 µM [inhibitor, full curve, poor fit]	–
NC(=O)COC(=O)/C=C/c1cccc(Br)c1	inactive	–
O=C(Nc1ccc(Cl)cc1C(=O)c1ccccc1)c1ccco1	inconclusive: 0.828 µM [inhibitor, full curve, poor fit]	–
COc1ccc(/C=C/C(=O)NCCOc2ccc(C)cc2)cc1	inconclusive: 18.5 µM [inhibitor, single point]	–
CN1CCN(c2ccc(NC(=O)c3ccc(Oc4ccccc4)cc3)cc2)CC1	inconclusive: 2.62 µM [inhibitor, full curve]	–
O=C(NC(=S)Nc1ccc(S(=O)(=O)N2CCOCC2)cc1)c1ccccc1[N+](=O)[O-]	inconclusive: 5.22 µM [inhibitor, partial curve, poor fit]	–
CCOc1ccc(S(=O)(=O)Nc2ccc(O)c(Sc3ncn[nH]3)c2)cc1	inconclusive: 16.5 µM [inhibitor, single point]	–
Cc1ccc(S(=O)(=O)N(C)c2ccc(C(=O)Nc3ccccc3C(=O)N3CCOCC3)cc2)cc1	inconclusive: 18.5 µM [inhibitor, single point]	–
O=C(COc1cccc2c1CCNC2=O)Nc1ccc(Cl)cc1	inconclusive: 10.4 µM [inhibitor, single point]	–
COc1ccc(C(=O)NC(=S)N2CC(C)OC(C)C2)cc1OC (stereo unspecified)	active: 5.22 µM	–
COc1cccc(C(=O)Nc2ccc3c(c2)C(=O)c2ccccc2C3=O)c1	inconclusive: 8.28 µM [inhibitor, partial curve]	–
CN(Cc1ccccc1)C(=O)c1cc(-c2ccc(Br)cc2)on1	inconclusive: 8.28 µM [inhibitor, partial curve, poor fit]	–
CNC(=O)c1nnsc1S(=O)(=O)c1ccc(Cl)cc1	inconclusive: 18.5 µM [inhibitor, single point]	–
CC(C)Cn1c2c(c(=O)[nH]c1=O)C(NS(=O)(=O)c1ccc(Cl)cc1)(C(F)(F)F)C(=O)N2 (stereo unspecified)	inconclusive: 2.33 µM [inhibitor, single point]	–
CCOC(=O)N1CCN(S(=O)(=O)CCNC(=O)c2cccc(OC)c2)CC1	inconclusive: 3.29 µM [inhibitor, single point]	–

A different layout for three compounds above.

| SMILES | Potency | activity change, negative = inhibition |
| --- | --- | --- |
| CN1CCN(c2ccc(NC(=O)c3ccc(Oc4ccccc4)cc3)cc2)CC1 | inconclusive: 2.62 µM [inhibitor, full curve] | – |
| O=C(NC(=S)Nc1ccc(S(=O)(=O)N2CCOCC2)cc1)c1ccccc1[N+](=O)[O-] | inconclusive: 5.22 µM [inhibitor, partial curve, poor fit] | – |
| CCOc1ccc(S(=O)(=O)Nc2ccc(O)c(Sc3ncn[nH]3)c2)cc1 | inconclusive: 16.5 µM [inhibitor, single point] | – |

Following part:

SMILES	Potency	activity change, negative = inhibition
Cc1ccccc1NC(=O)CSc1nc2[nH]c(=O)cc(O)c2s1	inactive	–
CC1=C(C(=O)OCC2CCCO2)C(c2ccc(C)o2)C2=C(CC(c3ccc(F)cc3)CC2=O)N1 (stereo unspecified)	inactive	–
O=C(CC1SC(=Nc2ccccc2)N(Cc2ccccn2)C1=O)Nc1ccc(Br)cc1 (stereo unspecified)	inconclusive: 18.5 µM [inhibitor, single point]	–
CCCN(CCC)CCCOC(=O)c1ccc(Cl)cc1Cl	inconclusive: 14.7 µM [inhibitor, partial curve, poor fit]	–
O=C(COC(=O)C1(c2ccc(Cl)cc2)CCCC1)Nc1ncc(C(F)(F)F)cc1Cl	inconclusive: 10.4 µM [inhibitor, single point]	–
O=C1OCCC1Sc1nnc(-c2ccco2)o1 (stereo unspecified)	inconclusive: 18.5 µM [inhibitor, single point]	–
NC(=O)[C@@H]1CCCN1C(=O)[C@@H](Cc1cnc[nH]1)NC(=O)[C@@H]1CCC(=O)N1	inactive	–
COc1ccc(Cc2nc3ccccc3[nH]2)cc1OC	inconclusive: 8.28 µM [inhibitor, single point]	–
Cn1ncc(Br)c1C(=O)NC12CC3CC(CC(C3)C1)C2	inactive	–
CCOC(=O)c1cnc2cc(-c3ccc(C)cc3)nn2c1-c1ccccc1	inconclusive: 11.7 µM [inhibitor, single point]	–
CS(=O)(=O)N(CC(=O)NCCSCc1ccco1)c1ccc2c(c1)OCO2	inactive	–
O=C1c2cc(F)ccc2-n2c1nc1ccccc1c2=O	active: 0.0294 µM	–
COc1cc(NC(=O)CN2C(=O)COc3ccc(S(=O)(=O)N4CCCCC4)cc32)cc(OC)c1	active: 10.4 µM	–
Cc1ccc(SC[C@H](Cc2ccccc2)N2CC[C@@H](NC(=O)OCc3ccccc3)CCC2=O)cc1	active: 8.28 µM	–
CC(=O)N(Cc1ccc(F)cc1)C1=C(NCCc2ccccc2)C(=O)c2ccccc2C1=O	active: 0.0037 µM	–
CCCC(=O)Nc1ccc(C(=O)NCc2ccccn2)cc1	–	inactive: 17.2% [at 5.75 µM]
CCOC(=O)c1c(S(=O)(=O)Nc2ccc(C)cn2)c(C)n(C)c1C	active: 10.4 µM	–
N=c1c2c3c(sc2ncn1N)CCCC3	inactive	–
COc1ccc(OC)c(C(O)C2CCCCN2)c1 (stereo unspecified)	active: 3.29 µM	–
C/C(=C\c1ccccc1)C(=O)NCc1ccco1	inconclusive: 0.928 µM [inhibitor, partial curve, poor fit]	–
COc1cc(C(=O)NCCC(=O)NCCc2ccc(Cl)cc2)cc(OC)c1OC	inconclusive: 4.15 µM [inhibitor, single point]	–
COc1ccc(N2CC(C(=O)NC3CCCCC3)CC2=O)cc1 (stereo unspecified)	inactive	–
COC(=O)c1c(NC(=O)c2ccccc2F)sc(C(=O)N2CCOCC2)c1C	inactive	–
